Data source: PubChem BioAssay AID1259308 (NCATS, 2017)
In all, the deposit lists about 59,000 reagents; below is an unselected part. Over the whole deposit, about 1,510 (2.6%) are marked active. 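Calls use total luciferase alone and ignore viability, so some active siRNAs may act by altering cell number.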 Entries without a mark were called inactive. The numbers tell different reagents against one gene apart.

Screen: 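Genes whose loss raises luciferase production in HEK293 cells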 (primary screen)
System: human HEK293 embryonic kidney cells stably expressing firefly luciferase (HEK-CMV-Luc2-Hygro)
Reagent: single siRNA against human genes, 0.8 pmol siRNA per well
Time to read-out: 72 h
Read-out: 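Luciferase light (ONE-Glo) measured on one replicate plate set and viability (CellTiter-Glo) on the other, scaled to a negative control siRNA, with robust z-scores and luciferase per cell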
Reading the numbers: total luciferase, z-score and total luciferase, % of control: higher = more reporter protein produced; luciferase per cell, z-score: higher = more reporter output per viable cell; viable cells, % of control: higher = more viable cells
Call rule: 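An siRNA counts as active if its total luciferase robust z-score exceeds 3; genes with two or more such siRNAs out of three were retested with fresh siRNAs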
Meaning of the calls: active = raised luciferase; inactive = no rise

| gene | reagent no. | total luciferase, z-score | total luciferase, % of control | luciferase per cell, z-score | viable cells, % of control |
| --- | --- | --- | --- | --- | --- |
| TBCK (TBC1 domain containing kinase) | 1 | -0.759 | 66.8 | -0.735 | 90.6 |
| TBCK (TBC1 domain containing kinase) | 2 | -0.116 | 79.6 | -0.138 | 92.2 |
| TBCK (TBC1 domain containing kinase) | 3 | 0.215 | 86.2 | 0.494 | 84.5 |
| NCKAP1L (NCK associated protein 1 like) | 1 | 0.616 | 94.1 | 0.0938 | 103 |
| NCKAP1L (NCK associated protein 1 like) | 2 | -0.347 | 75 | -0.549 | 96.8 |
| NCKAP1L (NCK associated protein 1 like) | 3 | 0.369 | 89.2 | 0.537 | 86.6 |
| ADH6 (alcohol dehydrogenase 6 (class V)) | 1 | 0.22 | 86.3 | -0.3 | 104 |
| ADH6 (alcohol dehydrogenase 6 (class V)) | 2 | 0.541 | 92.6 | 0.609 | 88.2 |
| ADH6 (alcohol dehydrogenase 6 (class V)) | 3 | -1.41 | 53.9 | -0.142 | 62.5 |
| DEMA1 (DPM1 ER membrane anchor 1) | 1 | -0.728 | 67.4 | 0.0219 | 74.9 |
| DEMA1 (DPM1 ER membrane anchor 1) | 2 | 1.88 | 119 | 1.41 | 92 |
| DEMA1 (DPM1 ER membrane anchor 1) | 3 | -0.135 | 79.2 | -0.814 | 110 |
| MRPS31 (mitochondrial ribosomal protein S31) | 1 | 1.65 | 115 | 1.39 | 89 |
| MRPS31 (mitochondrial ribosomal protein S31) | 2 | -0.036 | 81.2 | 0.33 | 83.2 |
| MRPS31 (mitochondrial ribosomal protein S31) | 3 | -0.873 | 64.5 | -0.964 | 92.9 |
| TMPRSS2 (transmembrane serine protease 2) | 1 | 0.197 | 85.8 | -0.648 | 114 |
| TMPRSS2 (transmembrane serine protease 2) | 2 | 0.449 | 90.8 | 0.296 | 93.9 |
| TMPRSS2 (transmembrane serine protease 2) | 3 | -1.53 | 51.6 | -1.11 | 77.1 |
| TRIM23 (tripartite motif containing 23) | 1 | 1.94 | 120 | 2.78 | 64.7 |
| TRIM23 (tripartite motif containing 23) | 2 | -0.39 | 74.1 | -0.677 | 99 |
| TRIM23 (tripartite motif containing 23) | 3 | -1.15 | 59 | -0.778 | 81 |
| FAM91A1 (family with sequence similarity 91 member A1) | 1 | -1.69 | 48.2 | -1.97 | 90.4 |
| FAM91A1 (family with sequence similarity 91 member A1) | 2 | 0.613 | 94.1 | 0.895 | 83 |
| FAM91A1 (family with sequence similarity 91 member A1) | 3 | -0.636 | 69.2 | 0.125 | 74.9 |
| DMTF1 (cyclin D binding myb like transcription factor 1) | 1 | 3.32 (active) | 148 | 2.41 | 87.6 |
| DMTF1 (cyclin D binding myb like transcription factor 1) | 2 | -0.706 | 67.8 | -0.944 | 97.2 |
| DMTF1 (cyclin D binding myb like transcription factor 1) | 3 | 2.27 | 127 | 1.33 | 99.9 |
| MSGN1 (mesogenin 1) | 1 | -0.368 | 74.6 | -0.056 | 84.6 |
| MSGN1 (mesogenin 1) | 2 | 0.213 | 86.1 | -0.565 | 112 |
| MSGN1 (mesogenin 1) | 3 | -0.0936 | 80 | -0.501 | 102 |
| ISOC2 (isochorismatase domain containing 2) | 1 | -0.913 | 63.7 | 0.0811 | 69.7 |
| ISOC2 (isochorismatase domain containing 2) | 2 | 1.07 | 103 | 1.11 | 86.1 |
| ISOC2 (isochorismatase domain containing 2) | 3 | -1.95 | 43 | -1.03 | 63.1 |
| RARG (retinoic acid receptor gamma) | 1 | 5.41 (active) | 189 | 3.21 | 91 |
| RARG (retinoic acid receptor gamma) | 2 | -1.31 | 55.8 | 0.113 | 60.6 |
| RARG (retinoic acid receptor gamma) | 3 | -1.52 | 51.6 | -1.25 | 80.3 |
| IL32 (interleukin 32) | 1 | 0.495 | 91.7 | -0.0394 | 104 |
| IL32 (interleukin 32) | 2 | -1.71 | 47.8 | -2.61 | 106 |
| IL32 (interleukin 32) | 3 | 0.0452 | 82.8 | -0.874 | 116 |
| TXNDC5 (thioredoxin domain containing 5) | 1 | 0.886 | 99.5 | 0.417 | 99.6 |
| TXNDC5 (thioredoxin domain containing 5) | 2 | 0.583 | 93.5 | 0.349 | 95.3 |
| TXNDC5 (thioredoxin domain containing 5) | 3 | 0.513 | 92.1 | 0.525 | 89.6 |
| STAR (steroidogenic acute regulatory protein) | 1 | 2.26 | 127 | 2.08 | 81.8 |
| STAR (steroidogenic acute regulatory protein) | 2 | -1.68 | 48.4 | -1.63 | 83.1 |
| STAR (steroidogenic acute regulatory protein) | 3 | -0.459 | 72.8 | -0.733 | 98.6 |
| NR1I3 (nuclear receptor subfamily 1 group I member 3) | 1 | -1.09 | 60.1 | -0.196 | 70.7 |
| NR1I3 (nuclear receptor subfamily 1 group I member 3) | 2 | -1.16 | 58.8 | -1.3 | 92.4 |
| NR1I3 (nuclear receptor subfamily 1 group I member 3) | 3 | -0.39 | 74.1 | -0.866 | 104 |
| GJA5 (gap junction protein alpha 5) | 1 | -0.0399 | 81.1 | -0.497 | 103 |
| GJA5 (gap junction protein alpha 5) | 2 | 1.03 | 102 | 0.702 | 95.1 |
| GJA5 (gap junction protein alpha 5) | 3 | -0.0395 | 81.1 | -0.0992 | 93 |
| RBM46 (RNA binding motif protein 46) | 1 | -0.196 | 78 | -0.86 | 109 |
| RBM46 (RNA binding motif protein 46) | 2 | 2.12 | 124 | 1.86 | 84.8 |
| RBM46 (RNA binding motif protein 46) | 3 | 2.46 | 131 | 1.08 | 110 |
| GRAP (GRB2 related adaptor protein) | 1 | -1.25 | 57 | -0.844 | 79.5 |
| GRAP (GRB2 related adaptor protein) | 2 | 0.131 | 84.5 | -0.0419 | 95.5 |
| GRAP (GRB2 related adaptor protein) | 3 | 1.19 | 106 | 0.417 | 106 |
